PubChem BioAssay AID652243 – Drosophila RNAi Screening Center, 2013
The deposit covers about 24,000 reagents; below is an unselected part of those with a known target gene and a result. Over the whole deposit, 246 (1%) got an active call. 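Plates not normalised; calls are printed but the firefly/Renilla ratio behind them is not deposited; fold cut for lowering reported inconsistently.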 Raw values are not corrected between plates. A plus sign joins genes that one reagent is predicted to hit. The record does not give: the amount of reagent.

Screen: 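Fly genes required for human androgen receptor driven transcription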 (primary screen)
Cell system: Drosophila S2R+ cells
Knock-down reagent: long dsRNA against Drosophila genes
Timing: 72 h (48 h, then 24 h hormone)
Treatment: synthetic androgen R1881 at 10 nM for 24 h
Measurement: 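Firefly light from an androgen-responsive reporter and Renilla control light per well, raw and unnormalised, for each of two replicates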
Reading the numbers: firefly reporter light: higher = more light from androgen-responsive reporter; Renilla control light: higher = more constitutive control signal (cell number, transfection)
Active means: 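Across duplicate plates, a knock-down whose log firefly/Renilla ratio shifted a set fold down or up from the GFP/LacZ control mean was a hit; the downward cut appears as both 1.5 and 3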
Meaning of the calls: active = hit: reporter lowered or raised; inactive = no hit

| gene knocked down | dsRNA | firefly reporter light, replicate 1 | firefly reporter light, replicate 2 | Renilla control light, replicate 1 | Renilla control light, replicate 2 | Outcome |
| --- | --- | --- | --- | --- | --- | --- |
| RhoGAP5A (GeneID 31473) | DRSC18294 | 1.45e5 | 1.06e5 | 1.17e6 | 5.36e5 | inactive |
| RhoGAP5A (GeneID 31473) | DRSC24778 | 5.62e5 | 3.75e5 | 1.39e6 | 5.23e5 | inactive |
| RhoGAP5A (GeneID 31473) | DRSC38990 | 1.80e6 | 1.87e6 | 2.33e6 | 1.88e6 | inactive |
| Mvb12 (GeneID 32791) | DRSC20027 | 3.78e5 | 3.85e5 | 3.20e6 | 2.94e6 | inactive |
| Serinc (GeneID 39827) | DRSC11296 | 24821 | 22361 | 2.58e5 | 1.47e5 | inactive |
| CG8854 (GeneID 36324) | DRSC07288 | 8.40e5 | 5.83e5 | 1.55e6 | 1.40e6 | inactive |
| CG8854 (GeneID 36324) | DRSC24639 | 8.17e5 | 7.64e5 | 8.65e5 | 9.65e5 | inactive |
| MTA1-like (GeneID 40693) | DRSC12382 | 88765 | 1.15e5 | 2.48e6 | 2.62e6 | inactive |
| MTA1-like (GeneID 40693) | DRSC22022 | 4.88e5 | 4.47e5 | 2.03e6 | 2.06e6 | active |
| MTA1-like (GeneID 40693) | DRSC23683 | 4.93e5 | 4.73e5 | 5.18e5 | 5.15e5 | inactive |
| MTA1-like (GeneID 40693) | DRSC24944 | 7.71e5 | 6.68e5 | 5.75e5 | 5.90e5 | inactive |
| CG17477 (GeneID 42067) | DRSC15239 | 87831 | 90933 | 2.19e6 | 1.71e6 | inactive |
| CG17477 (GeneID 42067) | DRSC26513 | 2.70e5 | 2.63e5 | 5.53e5 | 6.19e5 | inactive |
| CG13962 (GeneID 35270) | DRSC02304 | 1.44e5 | 1.08e5 | 1.16e6 | 1.39e6 | inactive |
| CG13962 (GeneID 35270) | DRSC30042 | 8.85e5 | 7.38e5 | 1.28e6 | 1.26e6 | inactive |
| CG7794 (GeneID 42159) | DRSC16313 | 74237 | 60742 | 7.81e5 | 1.25e6 | inactive |
| Brr2 (GeneID 39737) | DRSC10559 | 15778 | 14063 | 2.03e5 | 2.00e5 | inactive |
| Cad99C (GeneID 43528) | DRSC15050 | 1.58e5 | 1.45e5 | 2.34e6 | 2.53e6 | inactive |
| Cad99C (GeneID 43528) | DRSC16317 | 84094 | 85689 | 1.04e6 | 7.00e5 | inactive |
| CG42822 (GeneID 10178916) | DRSC38816 | 1.14e6 | 1.07e6 | 1.94e6 | 2.03e6 | inactive |
| CG18731 (GeneID 59246) | DRSC15377 | 2.39e5 | 4.28e5 | 2.40e6 | 3.51e6 | inactive |
| Hexo1 (GeneID 38528) | DRSC08663 | 1.44e5 | 1.53e5 | 2.69e6 | 2.63e6 | inactive |
| CG32249 (GeneID 317939) | DRSC08101 | 3.98e5 | 4.46e5 | 8.62e5 | 7.10e5 | inactive |
| CG32249 (GeneID 317939) | DRSC08177 | 2.71e5 | 2.01e5 | 2.78e6 | 2.94e6 | inactive |
| CG32249 (GeneID 317939) | DRSC22444 | 4.19e5 | 9.03e5 | 8.05e5 | 1.70e6 | inactive |
| CG13870 (GeneID 37308) | DRSC06429 | 65342 | 77386 | 7.41e5 | 8.89e5 | inactive |
| Top3beta (GeneID 31565) | DRSC18724 | 69973 | 55729 | 4.93e5 | 3.65e5 | inactive |
| CG13409 (GeneID 42592) | DRSC14585 | 2.70e5 | 2.75e5 | 3.27e6 | 3.45e6 | inactive |
| snk (GeneID 41607) | DRSC17060 | 20940 | 26647 | 6.41e5 | 7.22e5 | inactive |
| Ranbp16 + Lcch3 | DRSC20257 | 75513 | 1.15e5 | 5.50e5 | 5.74e5 | inactive |
| MED18 (GeneID 31140) | DRSC18549 | 3.68e5 | 3.06e5 | 3.98e6 | 2.76e6 | inactive |
| CG42724 (GeneID 40785) | DRSC12567 | 50364 | 11159 | 2.48e5 | 77805 | inactive |
| CG42724 (GeneID 40785) | DRSC22275 | 3.13e5 | 2.74e5 | 1.94e6 | 1.54e6 | active |
| CG42724 (GeneID 40785) | DRSC25154 | 4.57e5 | 8.81e5 | 6.09e5 | 7.53e5 | inactive |
| CG42724 (GeneID 40785) | DRSC30081 | 9.31e5 | 8.15e5 | 9.98e5 | 1.14e6 | inactive |
| Jra (GeneID 36057) | DRSC07447 | 8.07e5 | 6.36e5 | 2.25e6 | 2.23e6 | inactive |
| Jra (GeneID 36057) | DRSC27606 | 2.60e5 | 3.63e5 | 3.90e5 | 7.75e5 | inactive |
| Ccz1 (GeneID 38455) | DRSC08439 | 1.29e5 | 1.17e5 | 8.13e5 | 1.02e6 | inactive |

The list goes on; the last 4 above are carried over.
| gene knocked down | dsRNA | firefly reporter light, replicate 1 | firefly reporter light, replicate 2 | Renilla control light, replicate 1 | Renilla control light, replicate 2 | Outcome |
| --- | --- | --- | --- | --- | --- | --- |
| CG42724 (GeneID 40785) | DRSC30081 | 9.31e5 | 8.15e5 | 9.98e5 | 1.14e6 | inactive |
| Jra (GeneID 36057) | DRSC07447 | 8.07e5 | 6.36e5 | 2.25e6 | 2.23e6 | inactive |
| Jra (GeneID 36057) | DRSC27606 | 2.60e5 | 3.63e5 | 3.90e5 | 7.75e5 | inactive |
| Ccz1 (GeneID 38455) | DRSC08439 | 1.29e5 | 1.17e5 | 8.13e5 | 1.02e6 | inactive |
| Tmhs (GeneID 38251) | DRSC08231 | 1.12e6 | 7.98e5 | 2.40e6 | 1.63e6 | inactive |
| CG2157 (GeneID 32018) | DRSC19836 | 6.30e5 | 5.32e5 | 4.53e6 | 3.68e6 | inactive |
| PCB (GeneID 36020) | DRSC05939 | 1.26e6 | 9.37e5 | 2.23e6 | 1.85e6 | inactive |
| CG14692 (GeneID 41298) | DRSC14915 | 1.77e5 | 2.17e5 | 2.13e6 | 2.26e6 | inactive |
| c12.2 (GeneID 53434) | DRSC18751 | 2.16e5 | 2.29e5 | 2.75e6 | 2.78e6 | inactive |
| c12.2 (GeneID 53434) | DRSC26390 | 3.10e5 | 2.44e5 | 7.82e5 | 9.13e5 | inactive |
| lov (GeneID 38007) | DRSC04665 | 7.45e5 | 7.53e5 | 1.82e6 | 1.78e6 | inactive |
| lov (GeneID 38007) | DRSC27208 | 3.51e5 | 1.92e5 | 6.31e5 | 3.15e5 | inactive |
| CG34051 (GeneID 3885660) | DRSC01739 | 5.58e5 | 5.54e5 | 2.92e6 | 2.49e6 | inactive |
| roh (GeneID 246602) | DRSC04003 | 92222 | 1.30e5 | 1.47e5 | 2.13e5 | inactive |
| CG14742 (GeneID 12797890) | DRSC14962 | 2.63e5 | 2.40e5 | 2.46e6 | 2.19e6 | inactive |
| PIG-G (GeneID 35685) | DRSC06823 | 1.06e6 | 4.36e5 | 1.61e6 | 1.02e6 | inactive |
| CG9861 (GeneID 37692) | DRSC04576 | 8.61e5 | 7.52e5 | 1.08e6 | 1.04e6 | inactive |
| CG9861 (GeneID 37692) | DRSC28876 | 4.10e5 | 4.45e5 | 1.37e6 | 1.41e6 | inactive |
| CG9380 (GeneID 38011) | DRSC04549 | 5.12e5 | 2.58e5 | 2.15e6 | 1.60e6 | inactive |
| Hmx (GeneID 42110) | DRSC15307 | 1.41e5 | 1.16e5 | 1.94e6 | 2.18e6 | inactive |
| Hmx (GeneID 42110) | DRSC24958 | 6.60e5 | 6.84e5 | 1.08e6 | 1.09e6 | inactive |
| Hmx (GeneID 42110) | DRSC25028 | 5.38e5 | 3.39e5 | 5.20e5 | 4.54e5 | inactive |
| salt (GeneID 43742) | DRSC15427 | 56549 | 60519 | 6.09e5 | 4.62e5 | inactive |
| salt (GeneID 43742) | DRSC25514 | 7.58e5 | 5.36e5 | 6.93e5 | 7.95e5 | inactive |
